Values from PubChem BioAssay AID1224828 (NIAID, 2016).

Purpose: 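Find genes required for NF-kappaB p65 moving into the nucleus after LPS in mouse macrophages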 (primary screen)
Cell system: mouse RAW264.7 G9 macrophage reporter cells (GFP-p65, Tnf promoter-mCherry)
Reagents: siRNA pool against mouse genes, 100 nM
Duration: 2 days siRNA transfection, then 40 min LPS before fixation
Challenge: LPS (Salmonella minnesota R595) at 10 ng/ml
Detection: 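Imaged p65 nuclear translocation ratio, normalised to the plate median, converted to robust z-scores and averaged across two replicates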
Direction: p65 translocation robust z-score: higher = more nuclear NF-kappaB p65 after LPS than the plate median; nuclear/cytoplasmic p65 ratio: higher = more nuclear NF-kappaB p65
Call rule: 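Called active when z exceeds 3.3 or falls under -1.56 (median of Tlr4 controls), giving activity score of at least 50; no calls for control wells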
Meaning of the calls: active = hit (p65 shift raised or lowered); inactive = no clear change
In all, the deposit lists about 17,000 reagents; shown is an unselected part. 762 of all reagents (4.5%) were called active. 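Active calls include both raised and lowered p65 entry, mostly lowered; wells with fewer than 50 cells lack a z-score.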 Raw values vary from plate to plate and are shown uncorrected. Reagents against one gene are numbered here.

| gene knocked down | reagent no. | p65 translocation robust z-score | nuclear/cytoplasmic p65 ratio, rep 1 | nuclear/cytoplasmic p65 ratio, rep 2 | low cell count flag | activity call |
| --- | --- | --- | --- | --- | --- | --- |
| Bmp8a (bone morphogenetic protein 8a) | 1 | -0.27 | 1.56 | 1.59 | enough cells to score | inactive |
| Bcl9l (B cell CLL/lymphoma 9-like) | 1 | – | 1.12 | 1.24 | fewer than 50 cells per well; well left out of scoring | inactive |
| Btaf1 (B-TFIID TATA-box binding protein associated factor 1) | 1 | -0.21 | 1.48 | 1.3 | enough cells to score | inactive |
| Or3a1 (olfactory receptor family 3 subfamily A member 1) | 1 | -1.34 | 1.32 | 1.4 | enough cells to score | inactive |
| Dhcr24 (24-dehydrocholesterol reductase) | 1 | -0.09 | 1.47 | 1.36 | enough cells to score | inactive |
| Dpy19l3 (dpy-19 like C-mannosyltransferase 3) | 1 | 1 | 1.52 | 1.73 | enough cells to score | inactive |
| Tceal9 (transcription elongation factor A like 9) | 1 | – | 1.29 | 1.09 | fewer than 50 cells per well; well left out of scoring | inactive |
| Ssr2 (signal sequence receptor, beta) | 1 | -0.01 | 1.53 | 1.57 | enough cells to score | inactive |
| Zc3hav1l (zinc finger CCCH-type, antiviral 1-like) | 1 | 0.7 | 1.67 | 1.64 | enough cells to score | inactive |
| Tcf7l2 (transcription factor 7 like 2, T cell specific, HMG box) | 1 | -0.51 | 1.44 | 1.45 | enough cells to score | inactive |
| Etos1 (ectopic ossification 1) | 1 | – | 1.34 | 1.43 | fewer than 50 cells per well; well left out of scoring | inactive |
| Zcchc12 (zinc finger, CCHC domain containing 12) | 1 | 0.3 | 1.54 | 1.4 | enough cells to score | inactive |
| Ecel1 (endothelin converting enzyme-like 1) | 1 | -0.07 | 1.52 | 1.31 | enough cells to score | inactive |
| Gpr55 (G protein-coupled receptor 55) | 1 | -0.03 | 1.5 | 1.58 | enough cells to score | inactive |
| Tnfsf8 (tumor necrosis factor (ligand) superfamily, member 8) | 1 | -0.24 | 1.5 | 1.47 | enough cells to score | inactive |
| Slc12a1 | 1 | -0.26 | 1.52 | 1.45 | enough cells to score | inactive |
| Tas2r105 (taste receptor, type 2, member 105) | 1 | 1.91 | 1.61 | 1.23 | enough cells to score | inactive |
| Or4c3d (olfactory receptor family 4 subfamily C member 3D) | 1 | -0.39 | 1.59 | 1.34 | enough cells to score | inactive |
| Mxra8 (matrix-remodelling associated 8) | 1 | – | 1.64 | 1.54 | fewer than 50 cells per well; well left out of scoring | inactive |
| Coa3 (cytochrome C oxidase assembly factor 3) | 1 | -0.15 | 1.54 | 1.77 | enough cells to score | inactive |
| Vmn1r87 (vomeronasal 1 receptor 87) | 1 | 0.05 | 1.55 | 1.56 | enough cells to score | inactive |
| Socs6 (suppressor of cytokine signaling 6) | 1 | 0.13 | 1.38 | 1.3 | enough cells to score | inactive |
| Mtnr1b (melatonin receptor 1B) | 1 | 0.23 | 1.58 | 1.59 | enough cells to score | inactive |
| Eif5a (eukaryotic translation initiation factor 5A) | 1 | -0.94 | 1.33 | 1.13 | enough cells to score | inactive |
| Mbtps1 (membrane-bound transcription factor peptidase, site 1) | 1 | -0.89 | 1.31 | 1.25 | enough cells to score | inactive |
| Mrpl42 (mitochondrial ribosomal protein L42) | 1 | – | 1.12 | 1.31 | fewer than 50 cells per well; well left out of scoring | inactive |
| Tlx1 (T cell leukemia, homeobox 1) | 1 | -0.95 | 1.42 | 1.35 | enough cells to score | inactive |
| Gykl1 (glycerol kinase-like 1) | 1 | 0.46 | 1.62 | 1.56 | enough cells to score | inactive |
| Eftud2 (elongation factor Tu GTP binding domain containing 2) | 1 | – | 1.3 | 1.12 | fewer than 50 cells per well; well left out of scoring | inactive |
| Inhba (inhibin beta-A) | 1 | 0.86 | 1.58 | 1.5 | enough cells to score | inactive |
| S100b (S100 protein, beta polypeptide, neural) | 1 | -0.95 | 1.35 | 1.41 | enough cells to score | inactive |
| Cd209d (CD209d antigen) | 1 | -0.43 | 1.59 | 1.65 | enough cells to score | inactive |
| Rpl5 (ribosomal protein L5) | 1 | -1.1 | 1.37 | 1.34 | enough cells to score | inactive |
| Rac3 (Rac family small GTPase 3) | 1 | 0.94 | 1.71 | 1.59 | enough cells to score | inactive |
| Or10j7 (olfactory receptor family 10 subfamily J member 7) | 1 | -0.35 | 1.59 | 1.34 | enough cells to score | inactive |
| Mtap (methylthioadenosine phosphorylase) | 1 | 0.41 | 1.47 | 1.42 | enough cells to score | inactive |
| Pramel39-ps (PRAME like 39, pseudogene) | 1 | – | 1.1 | 1.48 | fewer than 50 cells per well; well left out of scoring | inactive |
| Nrxn3 (neurexin III) | 1 | -0.55 | 1.78 | 1.32 | enough cells to score | inactive |
| Gys1 (glycogen synthase 1, muscle) | 1 | -0.44 | 1.36 | 1.33 | enough cells to score | inactive |
| Gys1 (glycogen synthase 1, muscle) | 2 | -0.46 | 1.69 | 1.37 | enough cells to score | inactive |
| Hcn2 (hyperpolarization-activated, cyclic nucleotide-gated K+ 2) | 1 | -0.37 | 1.37 | 1.34 | enough cells to score | inactive |
| Ltv1 (LTV1 ribosome biogenesis factor) | 1 | – | 1.87 | 1.57 | fewer than 50 cells per well; well left out of scoring | inactive |
| Gadd45a (growth arrest and DNA-damage-inducible 45 alpha) | 1 | -0.75 | 1.39 | 1.22 | enough cells to score | inactive |
| B3gat2 (beta-1,3-glucuronyltransferase 2) | 1 | 2.71 | 1.9 | 1.99 | enough cells to score | inactive |
| Wdr4 (WD repeat domain 4) | 1 | -1 | 1.46 | 1.37 | enough cells to score | inactive |
| Ngf (nerve growth factor) | 1 | 1.5 | 1.58 | 1.67 | enough cells to score | inactive |
| Tlr4 (toll-like receptor 4) | 1 | -2.38 | 0.99 | 1.08 | enough cells to score | active |
| Smarca1 (SNF2 related chromatin remodeling ATPase 1) | 1 | -0.15 | 1.44 | 1.63 | enough cells to score | inactive |
| Rtp4 (receptor transporter protein 4) | 1 | 0.72 | 1.66 | 1.78 | enough cells to score | inactive |
| Ctnnbl1 (catenin, beta like 1) | 1 | 1.12 | 1.65 | 1.5 | enough cells to score | inactive |
| Sqstm1 (sequestosome 1) | 1 | – | 1.61 | 1.56 | fewer than 50 cells per well; well left out of scoring | inactive |
| Lurap1l (leucine rich adaptor protein 1-like) | 1 | 0.43 | 1.59 | 1.65 | enough cells to score | inactive |
| Mptx1 (mucosal pentraxin 1) | 1 | -0.49 | 1.37 | 1.18 | enough cells to score | inactive |
| Poglut2 (protein O-glucosyltransferase 2) | 1 | 1.34 | 1.71 | 1.64 | enough cells to score | inactive |
| Snrnp25 (small nuclear ribonucleoprotein 25 (U11/U12)) | 1 | 0.05 | 1.32 | 1.26 | enough cells to score | inactive |
| Dek (DEK proto-oncogene) | 1 | -0.57 | 1.41 | 1.29 | enough cells to score | inactive |
| Guca1b (guanylate cyclase activator 1B) | 1 | 0.42 | 1.44 | 1.47 | enough cells to score | inactive |
| Taf1c | 1 | 0.34 | 1.62 | 1.52 | enough cells to score | inactive |
| Pla2g12a (phospholipase A2, group XIIA) | 1 | 0.78 | 1.29 | 1.3 | enough cells to score | inactive |

Active calls, of those listed so far:
| gene knocked down | reagent no. | p65 translocation robust z-score | nuclear/cytoplasmic p65 ratio, rep 1 | nuclear/cytoplasmic p65 ratio, rep 2 | low cell count flag | activity call |
| --- | --- | --- | --- | --- | --- | --- |
| Tlr4 (toll-like receptor 4) | 1 | -2.38 | 0.99 | 1.08 | enough cells to score | active |
